{"source": "patent US20200205399A1", "about": "“COMPOSITION FOR CRYOPRESERVATION, METHOD FOR PRODUCING CRYOPRESERVED MATERIAL, CELL PREPARATION, METHOD FOR PRODUCING CELL PREPARATION, AND KIT FOR CRYOPRESERVATION” (TWO CELLS Co., Ltd., priority 2017, published 2020)", "system": "human synovium-derived MSCs (cell suspension)", "test": "Experimental cryopreservation of MSCs in the form of a cell suspension; trypan blue cell count after thawing", "type": "cell-based", "settings": "conclusion from cell suspension experiments, constituent added to basal medium + 10% DMSO", "note": "For at least one compound, name, drawing or mass did not settle the structure."}
{"smiles": "O=[Se](O)O", "note": "[Na2SeO3, Sodium Selenite]", "values": [{"measurement": "effectiveness for the cryopreservation of MSCs", "value": "not effective"}]}
